Measured values reported in the supplement of paper PMC10849652.
The other results are listed elsewhere or left out.

Sequences of proteins named here, by UniProt entry; tags and fusion partners are left off. A change or cut given only in a name is not applied to a line headed by its entry.
UniProt Q9Y6C9: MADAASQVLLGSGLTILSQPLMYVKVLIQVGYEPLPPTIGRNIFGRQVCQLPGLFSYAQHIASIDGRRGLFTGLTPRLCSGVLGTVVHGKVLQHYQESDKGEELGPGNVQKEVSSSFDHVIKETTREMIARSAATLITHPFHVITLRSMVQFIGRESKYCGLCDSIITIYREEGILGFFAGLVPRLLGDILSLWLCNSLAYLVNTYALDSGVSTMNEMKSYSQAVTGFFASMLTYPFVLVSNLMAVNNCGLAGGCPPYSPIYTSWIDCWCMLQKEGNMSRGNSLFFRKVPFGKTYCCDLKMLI
UniProt Q13496: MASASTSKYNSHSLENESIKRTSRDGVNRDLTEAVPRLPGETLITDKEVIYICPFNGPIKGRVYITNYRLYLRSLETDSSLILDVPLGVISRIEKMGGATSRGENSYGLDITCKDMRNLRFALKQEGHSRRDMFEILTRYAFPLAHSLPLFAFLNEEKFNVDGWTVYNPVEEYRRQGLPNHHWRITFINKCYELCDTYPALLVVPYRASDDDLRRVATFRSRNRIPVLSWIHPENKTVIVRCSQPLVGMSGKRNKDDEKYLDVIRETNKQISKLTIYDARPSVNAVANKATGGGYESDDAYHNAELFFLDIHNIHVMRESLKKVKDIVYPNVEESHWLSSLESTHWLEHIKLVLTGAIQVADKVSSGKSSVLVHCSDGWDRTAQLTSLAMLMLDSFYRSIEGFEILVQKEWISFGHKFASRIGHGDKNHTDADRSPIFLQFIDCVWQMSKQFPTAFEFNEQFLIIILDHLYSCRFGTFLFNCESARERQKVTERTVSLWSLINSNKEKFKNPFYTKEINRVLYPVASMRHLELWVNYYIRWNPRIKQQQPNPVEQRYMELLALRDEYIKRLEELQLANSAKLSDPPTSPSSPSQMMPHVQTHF
UniProt P49914: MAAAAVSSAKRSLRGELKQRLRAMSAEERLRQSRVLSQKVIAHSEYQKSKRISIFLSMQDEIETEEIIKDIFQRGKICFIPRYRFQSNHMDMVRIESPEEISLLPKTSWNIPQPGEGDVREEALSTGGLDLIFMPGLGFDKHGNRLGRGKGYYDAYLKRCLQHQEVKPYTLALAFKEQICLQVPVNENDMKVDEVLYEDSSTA
UniProt Q8NCE2: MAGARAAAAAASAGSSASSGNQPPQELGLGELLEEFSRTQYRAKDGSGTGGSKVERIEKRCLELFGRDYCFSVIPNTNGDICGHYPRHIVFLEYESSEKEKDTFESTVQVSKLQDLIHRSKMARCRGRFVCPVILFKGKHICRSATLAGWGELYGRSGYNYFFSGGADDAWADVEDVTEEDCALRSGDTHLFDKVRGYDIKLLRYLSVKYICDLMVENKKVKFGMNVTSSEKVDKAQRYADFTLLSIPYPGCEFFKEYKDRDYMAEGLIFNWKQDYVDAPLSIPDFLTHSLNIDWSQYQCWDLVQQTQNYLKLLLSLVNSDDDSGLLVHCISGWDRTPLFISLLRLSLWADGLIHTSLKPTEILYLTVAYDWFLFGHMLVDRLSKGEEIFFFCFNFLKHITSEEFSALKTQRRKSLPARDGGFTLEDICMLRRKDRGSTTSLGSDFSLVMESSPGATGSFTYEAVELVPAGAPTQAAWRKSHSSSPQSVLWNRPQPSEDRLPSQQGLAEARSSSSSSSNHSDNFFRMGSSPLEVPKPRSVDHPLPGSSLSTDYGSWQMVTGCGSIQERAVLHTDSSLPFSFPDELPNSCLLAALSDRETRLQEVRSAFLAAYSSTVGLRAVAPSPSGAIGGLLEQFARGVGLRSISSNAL
UniProt Q99707: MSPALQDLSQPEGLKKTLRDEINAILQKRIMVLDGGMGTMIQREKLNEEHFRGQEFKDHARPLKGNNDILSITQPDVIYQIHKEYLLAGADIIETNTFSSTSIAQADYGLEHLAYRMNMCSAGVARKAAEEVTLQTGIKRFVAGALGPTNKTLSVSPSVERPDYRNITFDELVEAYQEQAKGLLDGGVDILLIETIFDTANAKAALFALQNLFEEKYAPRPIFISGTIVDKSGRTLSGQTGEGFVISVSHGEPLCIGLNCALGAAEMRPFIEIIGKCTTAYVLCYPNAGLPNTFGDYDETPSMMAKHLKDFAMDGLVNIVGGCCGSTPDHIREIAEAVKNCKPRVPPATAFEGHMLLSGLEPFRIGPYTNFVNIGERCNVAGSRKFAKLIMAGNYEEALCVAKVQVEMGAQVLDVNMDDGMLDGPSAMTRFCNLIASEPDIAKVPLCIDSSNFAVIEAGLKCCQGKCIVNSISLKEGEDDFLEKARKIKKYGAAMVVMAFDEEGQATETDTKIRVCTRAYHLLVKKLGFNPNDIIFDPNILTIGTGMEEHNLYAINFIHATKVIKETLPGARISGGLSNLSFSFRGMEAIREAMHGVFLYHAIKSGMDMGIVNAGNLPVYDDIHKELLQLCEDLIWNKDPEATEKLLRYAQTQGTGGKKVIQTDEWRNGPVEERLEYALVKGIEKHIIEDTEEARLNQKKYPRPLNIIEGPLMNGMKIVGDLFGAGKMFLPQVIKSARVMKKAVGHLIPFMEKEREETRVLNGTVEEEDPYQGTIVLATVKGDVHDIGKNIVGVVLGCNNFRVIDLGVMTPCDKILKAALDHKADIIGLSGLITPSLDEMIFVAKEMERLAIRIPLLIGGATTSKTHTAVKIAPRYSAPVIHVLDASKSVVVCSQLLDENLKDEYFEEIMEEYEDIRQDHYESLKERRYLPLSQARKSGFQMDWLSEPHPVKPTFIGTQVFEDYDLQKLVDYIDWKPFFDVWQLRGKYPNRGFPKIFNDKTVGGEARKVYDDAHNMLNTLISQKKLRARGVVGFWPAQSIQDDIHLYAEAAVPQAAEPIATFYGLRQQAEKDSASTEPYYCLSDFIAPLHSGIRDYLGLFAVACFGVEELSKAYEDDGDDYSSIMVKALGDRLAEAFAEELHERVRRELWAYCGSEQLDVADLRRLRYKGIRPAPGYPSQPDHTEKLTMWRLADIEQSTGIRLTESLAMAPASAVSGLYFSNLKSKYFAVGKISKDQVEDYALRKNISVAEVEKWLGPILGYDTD
UniProt Q9BUK6: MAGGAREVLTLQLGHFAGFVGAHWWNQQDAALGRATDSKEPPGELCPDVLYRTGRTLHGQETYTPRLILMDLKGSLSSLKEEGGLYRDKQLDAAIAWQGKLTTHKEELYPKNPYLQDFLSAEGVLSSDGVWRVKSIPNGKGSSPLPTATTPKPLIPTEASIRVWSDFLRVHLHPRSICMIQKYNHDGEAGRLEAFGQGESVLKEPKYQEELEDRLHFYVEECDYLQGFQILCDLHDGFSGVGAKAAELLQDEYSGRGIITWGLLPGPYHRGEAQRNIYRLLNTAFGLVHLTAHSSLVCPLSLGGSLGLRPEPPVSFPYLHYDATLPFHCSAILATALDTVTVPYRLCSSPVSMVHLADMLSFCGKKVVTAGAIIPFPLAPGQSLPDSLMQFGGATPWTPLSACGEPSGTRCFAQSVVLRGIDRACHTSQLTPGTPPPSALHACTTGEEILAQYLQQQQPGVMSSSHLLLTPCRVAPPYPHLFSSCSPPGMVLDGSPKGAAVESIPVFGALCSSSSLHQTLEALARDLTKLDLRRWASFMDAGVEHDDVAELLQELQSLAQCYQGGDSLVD
UniProt P42285: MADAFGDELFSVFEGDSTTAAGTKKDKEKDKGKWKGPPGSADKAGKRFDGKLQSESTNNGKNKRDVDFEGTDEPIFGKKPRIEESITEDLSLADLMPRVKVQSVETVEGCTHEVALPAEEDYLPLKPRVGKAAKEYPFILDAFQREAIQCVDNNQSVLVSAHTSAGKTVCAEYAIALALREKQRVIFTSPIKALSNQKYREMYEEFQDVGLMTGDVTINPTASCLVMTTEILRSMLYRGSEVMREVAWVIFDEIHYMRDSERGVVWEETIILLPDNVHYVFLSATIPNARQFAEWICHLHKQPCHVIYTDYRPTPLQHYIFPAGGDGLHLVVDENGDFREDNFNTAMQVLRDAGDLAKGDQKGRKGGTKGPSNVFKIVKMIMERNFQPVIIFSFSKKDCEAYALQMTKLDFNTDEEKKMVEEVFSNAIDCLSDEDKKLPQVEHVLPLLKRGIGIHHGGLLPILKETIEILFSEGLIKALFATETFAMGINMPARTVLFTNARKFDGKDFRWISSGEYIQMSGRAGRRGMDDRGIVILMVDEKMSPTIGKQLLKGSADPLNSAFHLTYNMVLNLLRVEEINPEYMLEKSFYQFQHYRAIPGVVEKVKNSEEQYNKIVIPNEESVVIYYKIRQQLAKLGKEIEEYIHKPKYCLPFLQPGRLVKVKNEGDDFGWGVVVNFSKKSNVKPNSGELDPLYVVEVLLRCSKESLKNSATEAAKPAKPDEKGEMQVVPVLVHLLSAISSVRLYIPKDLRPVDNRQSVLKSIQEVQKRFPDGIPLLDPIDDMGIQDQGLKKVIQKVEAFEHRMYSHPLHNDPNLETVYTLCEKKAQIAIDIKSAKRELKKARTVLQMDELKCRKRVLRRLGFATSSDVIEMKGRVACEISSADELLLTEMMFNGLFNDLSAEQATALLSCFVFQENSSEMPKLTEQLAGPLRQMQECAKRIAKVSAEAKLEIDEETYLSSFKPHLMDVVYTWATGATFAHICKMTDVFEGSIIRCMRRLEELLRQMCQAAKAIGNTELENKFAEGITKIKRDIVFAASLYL

Key:
Test in all cases: log2 fold change, soluble protein after heating vs DMSO (PISA); higher = thermal stabilisation; K562 lysate, 10 uM; active = over 0.2 and 3.5 SD of the protein, either way, in both replicates (recomputed)
[1] = compound: C=CC(=O)N1CCC[C@@H](n2nc(-c3ccc(Oc4ccccc4)cc3)c3c(N)ncnc32)C1 [ibrutinib]
In short: (§1)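 The values are log-two fold changes in thermal stability compared with solvent controls and come from duplicates. They were obtained by TMTpro 16plex LC-MS/MS, with channel sums equalised, on the supernatant after 21,000xg for 90 min. That supernatant came from crude K562 extract at 1 mg/mL protein treated with 10 μM compound for 30 min, heated for 3 min across 48°C-58°C, pooled and brought to 0.5% NP-40 at 4°C.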

[2] = compound: CC(=O)c1cnc2ccc(-c3cc(Cl)c(O)c(Cl)c3)nc2c1N[C@H]1CC[C@H](CN(C)C)CC1
In short: as §1

[3] = compound: CC(C)(C)Cn1c(N)nc2ccc(-c3[nH]c(C(C)(C)C)nc3-c3ccc(F)cc3)nc21 [ralimetinib]
In short: as §1

[4] = compound: CC(C)(O)CC(=O)NCCn1ccc2ncnc(Nc3ccc(Oc4cccc(C(F)(F)F)c4)c(Cl)c3)c21
In short: as §1

[5] = compound: CC(C)C1=C2N=C(C=C(N2N=C1)NCC3=CC=CC=C3)NCCCCCCN
In short: as §1

[6] = compound: CC1=C(C(CC(=O)N1)C2=CC=C(C=C2)C(F)(F)F)C(=O)NC3=C(C=C4C(=C3)C=NN4)F
In short: as §1

[7] = compound: CC1=C(C2=C(C=C1)C(=O)C3=CC=CC=C3N2CCCN)C
In short: as §1

[8] = compound: CC1=C(C=C(C=C1)NC(=O)C2=CC(=CC=C2)C(C)(C)C#N)NC3=CC4=C(C=C3)N=CN(C4=O)C
In short: as §1

[9] = compound: CC1=C(C=C(C=C1)NC(=O)C2=CC(=CC=C2)N(C)C)NC(=O)C3=CC=C(C=C3)O
In short: as §1

[10] = compound: CC1=CC=C(C=C1)SC2=C3C=C(SC3=CN=C2)C(=O)N
In short: as §1

[11] = compound: CCCS(=O)(=O)Nc1ccc(F)c(C(=O)c2c[nH]c3ncc(-c4ccc(Cl)cc4)cc23)c1F [vemurafenib]
In short: as §1

[12] = compound: CCCS(=O)(=O)Nc1ccc(F)c(C(=O)c2c[nH]c3ncc(Cl)cc23)c1F
In short: as §1

[13] = compound: CCN(CCCOc1ccc2c(Nc3cc(CC(=O)Nc4cccc(F)c4)[nH]n3)ncnc2c1)CCOP(=O)(O)O [barasertib]
In short: as §1

[14] = compound: CC[C@@H]1C(=O)N(C)c2cnc(Nc3ccc(C(=O)NC4CCN(C)CC4)cc3OC)nc2N1C1CCCC1
In short: as §1

[15] = compound: CC[C@@H]1C(=O)N(C)c2cnc(Nc3ccc(C(=O)N[C@H]4CC[C@H](N5CCN(CC6CC6)CC5)CC4)cc3OC)nc2N1C(C)C [volasertib]
In short: as §1

[16] = compound: CCn1c(C(=O)N(C2CC2)C2CC2)cc2c3c(ncn3C)c(Nc3cc(C)n(C)n3)nc21
In short: as §1

[17] = compound: CCn1cc(-c2ccnc3[nH]c(-c4cccc(CN(C)C)c4)cc23)c(-c2ccc(NC(=O)N(C)C)cc2)n1
In short: as §1

[18] = compound: CN1CCC(CNc2ccc3ncc(-c4cccc(OC(F)(F)F)c4)n3n2)CC1
In short: as §1

[19] = compound: CN1CCN(CCOc2cc(OC3CCOCC3)c3c(Nc4c(Cl)ccc5c4OCO5)ncnc3c2)CC1 [saracatinib]
In short: as §1

[20] = compound: CN1CCN(c2nc(C3=C(c4c[nH]c5ccccc45)C(=O)NC3=O)c3ccccc3n2)CC1 [sotrastaurin]
In short: as §1

Measured: log2 fold change

MRPS34 (UniProt P82930)
inactive: [1] -0.02 | [2] -0.003 | [3] -0.024 | [4] 0.022 | [5] -0.031 | [6] -0.019 | [7] -0.074 | [8] -0.041 | [9] 0.015 | [10] 0.022 | [11] 0.053 | [12] 0.053 | [13] 0.041 | [14] -0.07 | [15] 0.014 | [16] 0.033 | [17] 0.024 | [18] -0.022 | [19] -0.002 | [20] 0.02

MRPS28 (UniProt Q9Y2Q9)
inactive: [1] 0.031 | [2] -0.017 | [3] -0.017 | [4] 0.031 | [5] -0.035 | [6] 0.051 | [7] 0.001 | [8] -0.02 | [9] 0.013 | [10] -0.001 | [11] -0.039 | [12] -0.039 | [13] -0.02 | [14] -0.015 | [15] 0.004 | [16] 0.017 | [17] 0.154 | [18] -0.08 | [19] -0.011 | [20] 0.013

MTCH2 (UniProt Q9Y6C9)
inactive: [1] 0.008 | [2] -0.022 | [3] 0.022 | [4] 0.023 | [5] 0.044 | [6] -0.019 | [7] -0.011 | [8] 0.043 | [9] -0.036 | [10] 0.031 | [11] 0.013 | [12] 0.008 | [13] -0.02 | [14] 0.021 | [15] 0.05 | [16] -0.012 | [17] -0.155 | [18] 0.014 | [19] -0.011 | [20] 0.022

MTM1 (UniProt Q13496)
inactive: [1] 0.054 | [2] -0.002 | [3] 0.017 | [4] -0.015 | [5] -0.025 | [6] 0.022 | [7] 0.03 | [8] 0.002 | [9] -0.017 | [10] 0.008 | [11] -0.012 | [12] 0.012 | [13] 0.027 | [14] 0.015 | [15] 0.001 | [16] -0.005 | [17] -0.074 | [18] -0.004 | [19] -0.026 | [20] 0.012

MT-CO1 (UniProt P00395)
inactive: [1] 0.044 | [2] 0.027 | [3] 0.005 | [4] -0.038 | [5] -0.003 | [6] 0.066 | [7] -0.014 | [8] -0.003 | [9] -0.022 | [10] 0.03 | [11] -0.117 | [12] 0.037 | [13] 0.032 | [14] -0.044 | [15] 0.073 | [16] 0.005 | [17] -0.157 | [18] 0.14 | [19] 0.041 | [20] 0.001

MRPL38 (UniProt Q96DV4)
inactive: [1] 0.014 | [2] 0.024 | [3] -0.031 | [4] 0.063 | [5] 0.015 | [6] -0.01 | [7] -0.064 | [8] -0.041 | [9] 0.051 | [10] -0.041 | [11] 0.024 | [12] -0.032 | [13] -0.015 | [14] -0.064 | [15] -0.114 | [16] 0.058 | [17] 0.005 | [18] -0.036 | [19] 0.046 | [20] 0.02

MRPL9 (UniProt Q9BYD2)
inactive: [1] -0.035 | [2] 0.002 | [3] -0.065 | [4] -0.015 | [5] 0.02 | [6] -0.007 | [7] -0.033 | [8] 0.061 | [9] -0.012 | [10] -0.028 | [11] 0.02 | [12] -0.025 | [13] 0.063 | [14] 0.055 | [15] 0.055 | [16] -0.032 | [17] 0.071 | [18] -0.097 | [19] 0.034 | [20] 0.032

MTHFS (UniProt P49914)
inactive: [1] -0.013 | [2] -0.021 | [3] 0.004 | [4] 0.005 | [5] 0.003 | [6] -0.009 | [7] -0.001 | [8] 0.077 | [9] 0.064 | [10] -0.034 | [11] 0.066 | [12] 0.006 | [13] -0.075 | [14] 0.004 | [15] -0.02 | [16] -0.113 | [17] -0.037 | [18] -0.017 | [19] -0.015 | [20] 0.133

MRTO4 (UniProt Q9UKD2)
inactive: [1] 0.023 | [2] -0.014 | [3] 0.012 | [4] 0.001 | [5] 0.015 | [6] -0.001 | [7] -0.015 | [8] -0.037 | [9] 0.016 | [10] 0.016 | [11] -0.025 | [12] 0.011 | [13] -0.003 | [14] -0.029 | [15] -0.007 | [16] 0.011 | [17] -0.084 | [18] 0.01 | [19] -0.001 | [20] 0

MTMR14 (UniProt Q8NCE2)
inactive: [1] -0.001 | [2] 0.042 | [3] -0.02 | [4] -0.093 | [5] -0.01 | [6] 0.031 | [7] 0.013 | [8] -0.007 | [9] -0.003 | [10] -0.007 | [11] 0.024 | [12] 0.061 | [13] 0.027 | [14] 0.018 | [15] -0.08 | [16] 0.031 | [17] -0.016 | [18] 0.002 | [19] 0.034 | [20] -0.01

MRPL49 (UniProt Q13405)
inactive: [1] 0.019 | [2] -0.062 | [3] -0.028 | [4] -0.017 | [5] -0.003 | [6] -0.151 | [7] 0.004 | [8] 0.026 | [9] -0.03 | [10] 0.024 | [11] 0.048 | [12] -0.003 | [13] 0.043 | [14] -0.024 | [15] -0.007 | [16] -0.015 | [17] -0.016 | [18] -0.124 | [19] 0.029 | [20] -0.023

Taken from the entries so far (4 entries):
MRPL38 (UniProt Q96DV4)
inactive: [1] 0.014 | [2] 0.024 | [3] -0.031 | [4] 0.063 | [5] 0.015 | [6] -0.01 | [7] -0.064 | [8] -0.041 | [9] 0.051 | [10] -0.041 | [11] 0.024 | [12] -0.032 | [13] -0.015 | [14] -0.064 | [15] -0.114 | [16] 0.058 | [17] 0.005 | [18] -0.036 | [19] 0.046 | [20] 0.02

MRPL9 (UniProt Q9BYD2)
inactive: [1] -0.035 | [2] 0.002 | [3] -0.065 | [4] -0.015 | [5] 0.02 | [6] -0.007 | [7] -0.033 | [8] 0.061 | [9] -0.012 | [10] -0.028 | [11] 0.02 | [12] -0.025 | [13] 0.063 | [14] 0.055 | [15] 0.055 | [16] -0.032 | [17] 0.071 | [18] -0.097 | [19] 0.034 | [20] 0.032

MTHFS (UniProt P49914)
inactive: [1] -0.013 | [2] -0.021 | [3] 0.004 | [4] 0.005 | [5] 0.003 | [6] -0.009 | [7] -0.001 | [8] 0.077 | [9] 0.064 | [10] -0.034 | [11] 0.066 | [12] 0.006 | [13] -0.075 | [14] 0.004 | [15] -0.02 | [16] -0.113 | [17] -0.037 | [18] -0.017 | [19] -0.015 | [20] 0.133

MRTO4 (UniProt Q9UKD2)
inactive: [1] 0.023 | [2] -0.014 | [3] 0.012 | [4] 0.001 | [5] 0.015 | [6] -0.001 | [7] -0.015 | [8] -0.037 | [9] 0.016 | [10] 0.016 | [11] -0.025 | [12] 0.011 | [13] -0.003 | [14] -0.029 | [15] -0.007 | [16] 0.011 | [17] -0.084 | [18] 0.01 | [19] -0.001 | [20] 0

(next part)

MRPS35 (UniProt P82673)
inactive: [1] -0.005 | [2] -0.067 | [3] -0.004 | [4] 0.002 | [5] -0.005 | [6] -0.026 | [7] -0.039 | [8] 0.001 | [9] 0.028 | [10] -0.027 | [11] 0.018 | [12] 0.007 | [13] 0.007 | [14] -0.001 | [15] -0.031 | [16] -0.003 | [17] -0.01 | [18] -0.036 | [19] 0.002 | [20] 0.058

MTR (UniProt Q99707)
inactive: [1] 0.005 | [2] 0 | [3] 0.032 | [4] -0.009 | [5] 0.009 | [6] 0.011 | [7] -0.011 | [8] -0.003 | [9] 0.021 | [10] 0.027 | [11] 0.036 | [12] 0.064 | [13] 0.022 | [14] 0.022 | [15] -0.032 | [16] -0.009 | [17] -0.09 | [18] -0.009 | [19] 0.014 | [20] 0.045

MRPS16 (UniProt Q9Y3D3)
inactive: [1] 0.099 | [2] 0.007 | [3] -0.003 | [4] 0.009 | [5] 0.078 | [6] -0.03 | [7] -0.046 | [8] -0.01 | [9] 0.056 | [10] -0.056 | [11] 0.038 | [12] 0.062 | [13] -0.052 | [14] -0.064 | [15] -0.092 | [16] 0.028 | [17] 0.592 | [18] -0.057 | [19] 0.045 | [20] 0.014

MSTO1 (UniProt Q9BUK6)
inactive: [1] 0.018 | [2] 0.065 | [3] 0.049 | [4] 0.018 | [5] -0.117 | [6] 0.014 | [7] 0.018 | [8] -0.01 | [9] 0.028 | [10] 0.02 | [11] -0.025 | [12] -0.059 | [13] 0.015 | [14] -0.03 | [15] -0.021 | [16] 0.017 | [17] 0.049 | [18] -0.016 | [19] -0.031 | [20] -0.045

MTREX (UniProt P42285)
inactive: [1] 0.001 | [2] 0.003 | [3] 0.008 | [4] -0.011 | [5] -0.01 | [6] -0.006 | [7] 0.001 | [8] -0.01 | [9] -0.004 | [10] 0.006 | [11] -0.003 | [12] 0.001 | [13] 0.018 | [14] -0.009 | [15] -0.012 | [16] -0.001 | [17] -0.025 | [18] 0.032 | [19] 0.009 | [20] 0
